Laboratory results reported in publication PMC9984496.
These are yes or no findings as the source states them, for the method shown. Binding seen in cells or lysates may run through a third protein. Some binding calls cover weakened binding; strength is not graded here.

Chains of the proteins cited; added tags and fusions are not shown.
UniProt O15391: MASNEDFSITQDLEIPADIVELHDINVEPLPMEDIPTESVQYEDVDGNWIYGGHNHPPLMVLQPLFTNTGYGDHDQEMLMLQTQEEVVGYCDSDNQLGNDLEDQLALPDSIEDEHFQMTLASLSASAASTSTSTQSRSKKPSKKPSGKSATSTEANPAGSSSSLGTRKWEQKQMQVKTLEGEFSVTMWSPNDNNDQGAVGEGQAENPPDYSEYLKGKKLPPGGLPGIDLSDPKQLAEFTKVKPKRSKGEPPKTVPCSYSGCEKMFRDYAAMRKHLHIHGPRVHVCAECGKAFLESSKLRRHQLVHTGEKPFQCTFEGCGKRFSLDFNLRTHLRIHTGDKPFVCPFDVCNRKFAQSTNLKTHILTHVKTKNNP
UniProt Q9HCE7: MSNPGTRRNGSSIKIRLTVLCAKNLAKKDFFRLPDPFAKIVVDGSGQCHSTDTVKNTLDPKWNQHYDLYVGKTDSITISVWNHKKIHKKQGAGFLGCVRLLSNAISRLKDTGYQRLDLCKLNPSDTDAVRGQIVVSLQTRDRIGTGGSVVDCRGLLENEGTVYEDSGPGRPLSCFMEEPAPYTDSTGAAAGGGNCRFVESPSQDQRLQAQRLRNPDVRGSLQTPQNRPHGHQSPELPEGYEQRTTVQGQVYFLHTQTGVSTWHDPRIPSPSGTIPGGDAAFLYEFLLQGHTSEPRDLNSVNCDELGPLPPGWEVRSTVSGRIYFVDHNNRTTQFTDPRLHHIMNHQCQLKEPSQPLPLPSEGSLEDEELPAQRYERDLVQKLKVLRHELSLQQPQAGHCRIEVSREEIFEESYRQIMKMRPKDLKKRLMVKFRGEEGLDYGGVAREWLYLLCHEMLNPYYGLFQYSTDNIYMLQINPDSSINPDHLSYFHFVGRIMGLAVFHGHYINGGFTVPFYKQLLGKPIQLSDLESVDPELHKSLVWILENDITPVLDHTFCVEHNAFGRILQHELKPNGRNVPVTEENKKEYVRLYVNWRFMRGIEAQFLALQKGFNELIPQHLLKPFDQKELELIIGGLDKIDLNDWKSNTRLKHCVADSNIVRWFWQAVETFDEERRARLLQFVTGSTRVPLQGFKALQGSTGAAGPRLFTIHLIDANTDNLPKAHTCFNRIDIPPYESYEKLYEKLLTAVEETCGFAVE

Molecular target: wild-type eGFP-YY2 (human) (UniProt O15391)
Assay: co-IP; HeLa cells stably expressing eGFP-YY2, transfected with Smurf1-FLAG for 24 hr; lysed in 25 mM Tris-HCl pH 7.4, 150 mM NaCl, 1% NP-40, 1 mM EDTA, 5% glycerol; anti-GFP antibody-magnetic beads, 4 °C, 4 hr; four washes; immunoblot; IgG control IP

For “Smurf1-FLAG (from UniProt Q9HCE7 1-757) (enzyme)”, the binding was “binds”.
